The other results are listed elsewhere or left out.

Chains of the proteins cited; added tags and fusions are not shown. Lines headed by an entry give the natural chain unless they say otherwise; changes in a name come on top.
UniProt Q86YV9: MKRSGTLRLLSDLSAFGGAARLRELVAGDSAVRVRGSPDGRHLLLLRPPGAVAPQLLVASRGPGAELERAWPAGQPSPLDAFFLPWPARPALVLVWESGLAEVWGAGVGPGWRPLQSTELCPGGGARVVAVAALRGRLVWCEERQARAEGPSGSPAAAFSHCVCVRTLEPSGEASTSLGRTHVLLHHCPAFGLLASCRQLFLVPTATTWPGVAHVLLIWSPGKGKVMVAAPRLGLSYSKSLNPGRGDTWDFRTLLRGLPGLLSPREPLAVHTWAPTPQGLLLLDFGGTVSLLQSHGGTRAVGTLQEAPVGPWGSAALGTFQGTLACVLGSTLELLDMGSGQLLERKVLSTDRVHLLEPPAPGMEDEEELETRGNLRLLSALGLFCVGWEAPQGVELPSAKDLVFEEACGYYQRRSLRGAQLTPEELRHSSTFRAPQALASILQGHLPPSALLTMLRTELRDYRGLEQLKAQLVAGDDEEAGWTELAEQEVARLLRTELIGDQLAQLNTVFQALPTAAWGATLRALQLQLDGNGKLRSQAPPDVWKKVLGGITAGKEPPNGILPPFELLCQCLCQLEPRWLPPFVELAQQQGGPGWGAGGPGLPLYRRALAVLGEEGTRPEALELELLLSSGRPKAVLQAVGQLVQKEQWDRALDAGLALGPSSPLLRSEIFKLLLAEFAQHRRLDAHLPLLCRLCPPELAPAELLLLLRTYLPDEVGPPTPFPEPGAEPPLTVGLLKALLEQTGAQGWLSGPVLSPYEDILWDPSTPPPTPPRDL
UniProt Q86VS8: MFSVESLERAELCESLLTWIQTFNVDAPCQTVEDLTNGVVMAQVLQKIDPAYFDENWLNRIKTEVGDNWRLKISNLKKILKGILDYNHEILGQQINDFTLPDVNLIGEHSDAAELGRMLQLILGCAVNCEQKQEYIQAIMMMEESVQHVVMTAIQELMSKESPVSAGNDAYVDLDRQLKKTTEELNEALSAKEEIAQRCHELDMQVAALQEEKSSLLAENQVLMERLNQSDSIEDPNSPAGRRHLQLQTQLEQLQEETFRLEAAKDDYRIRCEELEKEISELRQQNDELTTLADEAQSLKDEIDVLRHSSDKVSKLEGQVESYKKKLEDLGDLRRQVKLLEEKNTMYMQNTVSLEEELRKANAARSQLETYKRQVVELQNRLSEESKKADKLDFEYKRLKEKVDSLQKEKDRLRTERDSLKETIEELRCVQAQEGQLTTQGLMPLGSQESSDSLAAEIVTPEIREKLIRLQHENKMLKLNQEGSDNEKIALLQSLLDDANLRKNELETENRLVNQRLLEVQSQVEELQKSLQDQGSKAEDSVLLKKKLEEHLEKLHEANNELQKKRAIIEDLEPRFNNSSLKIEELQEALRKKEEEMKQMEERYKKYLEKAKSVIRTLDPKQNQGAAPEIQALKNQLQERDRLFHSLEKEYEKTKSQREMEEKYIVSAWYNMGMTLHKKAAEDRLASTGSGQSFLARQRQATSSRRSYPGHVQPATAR
UniProt P13612, whole entry: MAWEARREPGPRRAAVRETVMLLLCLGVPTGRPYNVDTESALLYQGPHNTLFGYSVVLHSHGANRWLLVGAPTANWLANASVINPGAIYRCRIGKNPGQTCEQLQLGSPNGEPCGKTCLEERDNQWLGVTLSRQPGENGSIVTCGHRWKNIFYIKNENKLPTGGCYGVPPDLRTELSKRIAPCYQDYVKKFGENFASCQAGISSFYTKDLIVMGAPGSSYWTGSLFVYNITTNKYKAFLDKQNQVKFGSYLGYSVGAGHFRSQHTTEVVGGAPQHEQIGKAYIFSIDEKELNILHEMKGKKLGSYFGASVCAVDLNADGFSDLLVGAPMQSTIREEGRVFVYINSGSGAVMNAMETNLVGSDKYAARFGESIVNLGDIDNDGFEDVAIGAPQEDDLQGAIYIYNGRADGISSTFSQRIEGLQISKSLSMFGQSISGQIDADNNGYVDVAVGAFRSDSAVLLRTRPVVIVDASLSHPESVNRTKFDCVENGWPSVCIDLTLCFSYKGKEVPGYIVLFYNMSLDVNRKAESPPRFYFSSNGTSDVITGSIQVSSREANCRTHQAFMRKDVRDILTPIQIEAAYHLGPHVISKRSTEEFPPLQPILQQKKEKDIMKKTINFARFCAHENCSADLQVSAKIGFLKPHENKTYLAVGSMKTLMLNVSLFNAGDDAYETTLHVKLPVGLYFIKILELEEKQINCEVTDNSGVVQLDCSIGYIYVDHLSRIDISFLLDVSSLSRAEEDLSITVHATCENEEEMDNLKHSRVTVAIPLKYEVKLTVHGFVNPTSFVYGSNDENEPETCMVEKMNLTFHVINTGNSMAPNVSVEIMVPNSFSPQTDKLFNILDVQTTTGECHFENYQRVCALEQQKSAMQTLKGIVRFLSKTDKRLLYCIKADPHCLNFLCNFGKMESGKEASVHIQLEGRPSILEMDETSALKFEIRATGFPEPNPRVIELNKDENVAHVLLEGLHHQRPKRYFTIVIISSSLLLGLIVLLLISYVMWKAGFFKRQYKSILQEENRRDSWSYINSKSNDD
UniProt Q9H3F6: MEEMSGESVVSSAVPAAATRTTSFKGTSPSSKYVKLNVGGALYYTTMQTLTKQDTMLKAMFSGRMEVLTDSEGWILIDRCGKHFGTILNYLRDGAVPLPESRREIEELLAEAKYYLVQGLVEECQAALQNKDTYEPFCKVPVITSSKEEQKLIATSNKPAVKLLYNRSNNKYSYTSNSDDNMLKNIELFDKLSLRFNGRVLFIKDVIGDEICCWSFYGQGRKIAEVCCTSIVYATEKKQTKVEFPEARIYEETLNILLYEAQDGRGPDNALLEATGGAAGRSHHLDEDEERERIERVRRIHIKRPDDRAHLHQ
UniProt Q3SXM5: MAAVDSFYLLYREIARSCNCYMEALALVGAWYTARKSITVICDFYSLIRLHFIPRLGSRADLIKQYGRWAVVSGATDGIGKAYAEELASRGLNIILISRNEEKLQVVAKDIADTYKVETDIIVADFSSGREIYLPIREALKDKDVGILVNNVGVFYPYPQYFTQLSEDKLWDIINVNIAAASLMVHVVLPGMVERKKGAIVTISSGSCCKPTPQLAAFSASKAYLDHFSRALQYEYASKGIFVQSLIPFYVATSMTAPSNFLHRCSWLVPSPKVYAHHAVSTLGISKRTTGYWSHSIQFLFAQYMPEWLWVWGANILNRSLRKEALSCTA
UniProt P51553: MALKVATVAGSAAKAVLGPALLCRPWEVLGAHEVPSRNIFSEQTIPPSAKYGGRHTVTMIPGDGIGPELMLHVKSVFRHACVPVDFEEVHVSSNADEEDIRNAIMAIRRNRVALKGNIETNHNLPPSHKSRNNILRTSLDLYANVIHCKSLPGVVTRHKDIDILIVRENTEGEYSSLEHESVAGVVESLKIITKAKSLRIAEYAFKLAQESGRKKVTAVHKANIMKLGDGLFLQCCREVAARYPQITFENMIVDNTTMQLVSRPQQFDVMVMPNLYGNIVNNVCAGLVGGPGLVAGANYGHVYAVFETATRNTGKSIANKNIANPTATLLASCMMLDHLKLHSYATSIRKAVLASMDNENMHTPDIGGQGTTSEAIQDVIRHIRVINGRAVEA
UniProt O76095: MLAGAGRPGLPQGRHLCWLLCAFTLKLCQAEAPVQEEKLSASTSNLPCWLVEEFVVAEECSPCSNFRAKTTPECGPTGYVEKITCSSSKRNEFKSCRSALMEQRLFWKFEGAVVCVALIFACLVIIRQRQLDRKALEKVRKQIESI
UniProt Q68E01, whole entry: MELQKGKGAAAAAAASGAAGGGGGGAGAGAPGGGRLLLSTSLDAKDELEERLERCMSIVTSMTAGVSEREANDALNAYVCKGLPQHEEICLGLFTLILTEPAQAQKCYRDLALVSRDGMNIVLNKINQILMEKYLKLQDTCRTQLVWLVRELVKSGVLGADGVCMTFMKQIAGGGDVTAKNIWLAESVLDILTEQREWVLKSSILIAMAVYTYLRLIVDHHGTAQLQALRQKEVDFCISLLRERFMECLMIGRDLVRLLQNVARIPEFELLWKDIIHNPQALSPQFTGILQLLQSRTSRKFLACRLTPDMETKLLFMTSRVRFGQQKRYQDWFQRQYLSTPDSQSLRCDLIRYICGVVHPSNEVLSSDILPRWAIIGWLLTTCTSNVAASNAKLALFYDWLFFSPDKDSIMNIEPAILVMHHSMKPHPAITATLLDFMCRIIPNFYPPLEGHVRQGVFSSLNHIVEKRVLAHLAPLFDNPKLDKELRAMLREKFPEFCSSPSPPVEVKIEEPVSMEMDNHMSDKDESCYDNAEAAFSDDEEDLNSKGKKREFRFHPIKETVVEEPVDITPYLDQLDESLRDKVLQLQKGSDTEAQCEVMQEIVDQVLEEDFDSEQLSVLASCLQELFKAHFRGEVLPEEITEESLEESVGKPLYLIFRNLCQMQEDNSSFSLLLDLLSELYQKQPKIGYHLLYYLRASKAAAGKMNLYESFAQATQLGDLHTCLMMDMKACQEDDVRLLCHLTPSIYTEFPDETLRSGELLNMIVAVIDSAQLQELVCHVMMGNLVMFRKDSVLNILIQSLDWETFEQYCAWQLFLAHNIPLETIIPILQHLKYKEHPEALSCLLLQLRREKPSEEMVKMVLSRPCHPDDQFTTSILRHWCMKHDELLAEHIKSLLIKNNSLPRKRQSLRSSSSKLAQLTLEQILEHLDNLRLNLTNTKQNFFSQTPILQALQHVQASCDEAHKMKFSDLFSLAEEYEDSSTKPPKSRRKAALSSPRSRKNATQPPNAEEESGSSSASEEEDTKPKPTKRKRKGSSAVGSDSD
UniProt Q12894: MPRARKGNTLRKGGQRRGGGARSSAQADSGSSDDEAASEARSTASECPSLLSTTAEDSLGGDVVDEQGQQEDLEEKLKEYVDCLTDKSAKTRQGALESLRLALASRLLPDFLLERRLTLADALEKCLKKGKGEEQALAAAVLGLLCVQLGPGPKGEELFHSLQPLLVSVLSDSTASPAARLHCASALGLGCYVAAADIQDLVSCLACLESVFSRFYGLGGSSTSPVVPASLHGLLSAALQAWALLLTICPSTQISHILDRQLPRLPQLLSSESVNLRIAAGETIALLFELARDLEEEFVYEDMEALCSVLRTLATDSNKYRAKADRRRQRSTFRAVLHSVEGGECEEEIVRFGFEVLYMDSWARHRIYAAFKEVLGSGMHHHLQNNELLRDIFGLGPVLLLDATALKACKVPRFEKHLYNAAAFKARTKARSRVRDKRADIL
UniProt P06213, whole entry: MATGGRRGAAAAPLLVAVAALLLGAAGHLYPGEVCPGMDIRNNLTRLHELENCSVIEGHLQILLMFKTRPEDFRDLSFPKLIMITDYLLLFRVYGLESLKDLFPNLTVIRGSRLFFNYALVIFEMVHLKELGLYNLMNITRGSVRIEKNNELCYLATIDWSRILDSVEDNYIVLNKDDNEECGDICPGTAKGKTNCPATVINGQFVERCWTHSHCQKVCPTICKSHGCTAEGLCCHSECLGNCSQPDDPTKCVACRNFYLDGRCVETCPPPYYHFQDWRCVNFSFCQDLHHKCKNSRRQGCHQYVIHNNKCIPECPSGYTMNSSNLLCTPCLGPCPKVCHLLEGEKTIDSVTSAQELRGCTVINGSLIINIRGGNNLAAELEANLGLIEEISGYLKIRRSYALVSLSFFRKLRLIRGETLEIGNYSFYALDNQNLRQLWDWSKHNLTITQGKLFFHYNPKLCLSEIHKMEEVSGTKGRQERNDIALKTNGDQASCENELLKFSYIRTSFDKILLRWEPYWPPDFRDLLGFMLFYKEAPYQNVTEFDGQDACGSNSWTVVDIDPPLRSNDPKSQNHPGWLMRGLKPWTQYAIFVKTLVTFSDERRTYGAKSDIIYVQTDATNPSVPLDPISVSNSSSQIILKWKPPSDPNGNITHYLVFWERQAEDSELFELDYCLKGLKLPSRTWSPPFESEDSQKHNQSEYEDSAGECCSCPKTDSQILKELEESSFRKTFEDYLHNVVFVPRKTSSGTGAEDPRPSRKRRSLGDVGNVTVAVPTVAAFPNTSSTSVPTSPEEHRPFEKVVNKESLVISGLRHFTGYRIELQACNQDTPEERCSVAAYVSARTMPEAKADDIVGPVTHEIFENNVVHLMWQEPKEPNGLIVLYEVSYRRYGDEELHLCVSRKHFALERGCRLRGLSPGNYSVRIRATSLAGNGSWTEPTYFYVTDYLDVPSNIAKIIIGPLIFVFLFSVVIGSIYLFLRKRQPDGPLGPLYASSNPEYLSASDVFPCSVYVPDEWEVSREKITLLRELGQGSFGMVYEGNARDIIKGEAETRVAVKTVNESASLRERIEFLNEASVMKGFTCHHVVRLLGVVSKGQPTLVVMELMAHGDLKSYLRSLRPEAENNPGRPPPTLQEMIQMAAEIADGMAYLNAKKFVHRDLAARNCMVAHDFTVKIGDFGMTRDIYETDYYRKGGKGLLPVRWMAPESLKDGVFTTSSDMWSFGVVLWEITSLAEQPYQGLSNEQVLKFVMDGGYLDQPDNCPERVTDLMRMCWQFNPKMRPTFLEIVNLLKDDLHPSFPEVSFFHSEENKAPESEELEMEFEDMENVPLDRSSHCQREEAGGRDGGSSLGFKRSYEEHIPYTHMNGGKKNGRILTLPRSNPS

Compound in this experiment: COc1ccc(Cn2ccc3ccc(C(=O)NO)cc32)cc1
Nature of the experiment: dose-dependent thermal stabilisation call (2D-TPP, DLPTP, 10% FDR) (binary (1 = stabilised)); higher = stabilised by the compound. The following applies: system: HL-60 intact cells; concentration range 0.04-10 µM.
Take IGFBP2 (UniProt P18065): the “dose-dependent thermal stabilisation call” value is inactive: 0.
As for KATNB1 (UniProt Q9BVA0), the “dose-dependent thermal stabilisation call” value is inactive: 0.
For HS2ST1 (UniProt Q7LGA3), the “dose-dependent thermal stabilisation call” value was inactive: 0.
HSPA8 (UniProt P11142): the “dose-dependent thermal stabilisation call” value is active: 1.
In the case of ITPK1 (UniProt Q13572), the “dose-dependent thermal stabilisation call” value was inactive: 0.
Turning to HSPD1 (UniProt P10809), the “dose-dependent thermal stabilisation call” value is inactive: 0.
Next, HPS6 (UniProt Q86YV9): inactive: 0.
Next, KIAA0323 (UniProt O15037): inactive: 0; HSPA9 (UniProt P38646): active: 1.
Turning to HNRPDL (UniProt O14979), the “dose-dependent thermal stabilisation call” value is inactive: 0.
In the case of ITPR2 (UniProt Q14571), the “dose-dependent thermal stabilisation call” value is inactive: 0.
The result for HOOK3 (UniProt Q86VS8) reads inactive: 0; that for HMGB2 (UniProt P26583), inactive: 0; that for HMGN4 (UniProt O00479), inactive: 0.
With ITGA5 (UniProt P08648), the “dose-dependent thermal stabilisation call” value was inactive: 0.
ITGA4 (UniProt P13612): the “dose-dependent thermal stabilisation call” value is inactive: 0.
The result for ILVBL (UniProt A1L0T0) reads inactive: 0; that for HMGCS1 (UniProt Q01581), inactive: 0; that for HMBS (UniProt P08397), inactive: 0.
Consider KCTD10 (UniProt Q9H3F6), for which the “dose-dependent thermal stabilisation call” value was inactive: 0.
Take ITM2A (UniProt O43736): the “dose-dependent thermal stabilisation call” value was inactive: 0.
HSDL1 (UniProt Q3SXM5): the “dose-dependent thermal stabilisation call” value was inactive: 0.
Next, HPS5 (UniProt Q9UPZ3): inactive: 0; IRAK3 (UniProt Q9Y616): inactive: 0.
Next, INTS10 (UniProt Q9NVR2): inactive: 0.
Next, KIAA0368 (UniProt Q5VYK3): inactive: 0; JMJD1A (UniProt Q9Y4C1): inactive: 0; IDH3G (UniProt P51553): inactive: 0.
With KBTBD4 (UniProt Q9NVX7), the “dose-dependent thermal stabilisation call” value was inactive: 0.
For JTB (UniProt O76095), the “dose-dependent thermal stabilisation call” value was inactive: 0.
The result for INTS3 (UniProt Q68E01) reads inactive: 0; that for HVCN1 (UniProt Q96D96), inactive: 0; that for IGF2BP1 (UniProt Q9NZI8), inactive: 0.
Next, INTS12 (UniProt Q96CB8): inactive: 0; IFRD2 (UniProt Q12894): inactive: 0.
For the target INSR (UniProt P06213), the “dose-dependent thermal stabilisation call” value is inactive: 0.
Take IWS1 (UniProt Q96ST2): the “dose-dependent thermal stabilisation call” value is inactive: 0.

(Values after the supplement of paper PMC7666118.)
